These are literature values, as cited in patent publication US20030022912A1, “Rapid-onset medicament for treatment of sexual dysfunction” (priority 2001, published 2003).

The conditions of this series: human subjects; sublingual administration; drug as free base except where a footnote notes a salt.

With `CN1CC[C@]23c4c5ccc(O)c4O[C@H]2[C@@H](O)C=C[C@H]3[C@H]1C5` [morphine], the “sublingual Tmax” value is 48 min.
With `CN1[C@@H]2C[C@@H](OC(=O)[C@H](CO)c3ccccc3)C[C@H]1[C@@H]1O[C@@H]12` [scopolamine], the “sublingual Tmax” value was 50 min.
